According to the RNAGym collection of RNA variant scans (doi:10.1126/science.aae0568):
Variants at the floor of the assay are shown more often than the library holds them.

B1: tRNA (parent)
chain: GUUCCGUUGGCGUAAUGGUAACGCGUCUCCCUCCUAAGGAGAAGACUGCGGGUUCGAGUCCCGUACGGAACG

Variants of: B1
Experiment: yeast fitness relative to wild type (ratio to wild type); higher = fitter; tRNA-Arg(CCU), competitive growth, 37 C, YPD
How it was run: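 The tRNA-Arg(CCU) gene variants were made by chemical synthesis with a 3% per-site mutation rate at 69 sites and inserted at the native genomic locus of Saccharomyces cerevisiae. After pooling, the strains were competed in YPD at 37°C for 24 hours in six parallel replicates. Gene amplicons from the start population and each end population were read by 100-nucleotide paired-end sequencing, and Darwinian fitness relative to wild type was taken from genotype frequency changes. Genotypes needed ≥ 100 starting reads, and estimates < 0.5 were set to 0.5.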

Variant	yeast fitness
GUUCCGUUGGCAUAUUGGUACCGCGUCUCCCUCCUAAGGAGAAGACUGUGGGUUCGAGUCCUGUACGGAACG [G12A A15U A21C C49U C62U]	≤ 0.5
GUUCCGUUGGCAUAUUGGUAACGUGUCUCCCUCCUAAGGAGAACACUGCGGCUUCGAGUCCCGUACGGUACG [G12A A15U C24U G44C G52C A69U]	≤ 0.5
GUUCCGUUGGCAUAAUGGUCACGGGUCUCCCUCCUAAGGAGAAGACUGCGGGUACGAGUGCCGUAUGGAACG [G12A A20C C24G U54A C60G C66U]	≤ 0.5
GUUCCGUUGGCAUAAUGGUUACGCGUCUCCCUCCUAAGGAGAAGACUGCGGGUUCGAGUCCUGUGCGGAACG [G12A A20U C62U A65G]	≤ 0.5
GUUCCGUUGGCAUAAUGGUUACGCGUCUCCCACCUAAGGAGAAGACUGGGGGUUCGAGUCCCAUUCGGAACG [G12A A20U U32A C49G G63A A65U]	0.535
GUUCCGUUGGCAUAAUGGUAGCGCGUCUCCCUCCUAAGGAGAAGACUGGGGGUUCGAGUCCCGUACGGACCG [G12A A21G C49G A70C]	≤ 0.5
GUUCCGUUGGCAUAAUGGUAUCGCGUCUCCCUCCUAAGGAGAAGACUGCGGGUUCGAGUCCCGUACGGAACG [G12A A21U]	0.729
GUUCCGUUGGCAUAAUGGUAUCGCGUCUCCCUCCUAAGGCGAAGACUGCGGGUUCGCGUCCCGUACGGAUCG [G12A A21U A40C A57C A70U]	≤ 0.5
GUUCCGUUGGCAUAAUGGUAUCGCGUCUCCCUCCUAAGGAGAAGACUGCGGGUUCCAGUCACGUACGGACCG [G12A A21U G56C C61A A70C]	≤ 0.5
GUUCCGUUGGCAUAAUGGUAACGCGUCUCCCUCCUGAGGAGAAGACUGGGGGUUCGAGUCCAAUACGGACCG [G12A A36G C49G C62A G63A A70C]	≤ 0.5
GUUCCGUUGGCAUAAUGGUAACGCGUCUCCCUCCUAAGGCGAAGACUGCGGGUACGAGUCCCGUACGGAACG [G12A A40C U54A]	≤ 0.5
GUUCCGUUGGCAUAAUGGUAACGCGUCUCCCUCCUAAGGAGCAGACGGUGGGUUCGAGUCCCGUACGGAACG [G12A A42C U47G C49U]	≤ 0.5
GUUCCGUUGGCAUAAUGGUAAGGGGUCUCCCUCCUAAGGAGAAGACCGCGGGUUCGAGUCCCGUACGGAACG [G12A C22G C24G U47C]	≤ 0.5
GUUCCGUUGGCAUAAUGGUAAGGCGUAUCCCUCCUAAGGAGAAGACUGCGGGUUCGAGUCCCGUACGGAACG [G12A C22G C27A]	0.663
GUUCCGUUGGCAUAAUGGUAAGGCGUCUUCCUCCUAAGGAGAAGACUGCGGGUUCGAGUCCAGUACGGCACG [G12A C22G C29U C62A A69C]	≤ 0.5
GUUCCGUUGGCAUAAUGGUAAUGCGUCUCCGUCCUAAGGAGAAGACUCCGGGUUCGAGUCCCGAAUGCAACG [G12A C22U C31G G48C U64A C66U G68C]	≤ 0.5
GUUCCGUUGGCAUAAUGGUAACGAGUCUCCCUCCUUAGGAGAAGACUGCGGGUUCGAGUCCCGUUCGGAACG [G12A C24A A36U A65U]	≤ 0.5
GUUCCGUUGGCAUAAUGGUAACGAGUCUCCCUCCUAUGGAGAAGACUGCGGGUUCGAGUACCGUAUGGAACG [G12A C24A A37U C60A C66U]	≤ 0.5
GUUCCGUUGGCAUAAUGGUAACGGGUCUCCCUCCUAAGGCGACGAUUGCGGGUUCGAGUCCCGCACGGAGCG [G12A C24G A40C A43C C46U U64C A70G]	≤ 0.5

Variant	yeast fitness
GUUCCGUUGGCAUAAUGGUAACGCGUCUACCUCCUAGGGAGAAGACUGCGGGUUCGAGUCCCGUACGGAACG [G12A C29A A37G]	≤ 0.5
GUUCCGUUGGCAUAAUGGUAACGCGUCUGCCUCCUAAGGAGAAGACUGCGGGUUCGAGUCCCGUACGGAACG [G12A C29G]	0.61
GUUCCGUUGGCAUAAUGGUAACGCGUCUCACUCCUACCGAGAAGACUGCGGGUUGGAGUCCCGUACGGAUCG [G12A C30A A37C G38C C55G A70U]	≤ 0.5
GUUCCGUUGGCAUAAUGGUAACGCGUCUCGCUCCUAUGGAGAAGACUGCGGCUUCGAGUCCCGUACGGAACG [G12A C30G A37U G52C]	≤ 0.5
GUUCCGUUGGCAUAAUGGUAACGCGUCUCGCUCCUAAGGAGCAGACUGCGGGUUCGUGUCCCGUACGGAACG [G12A C30G A42C A57U]	≤ 0.5
GUUCCGUUGGCAUAAUGGUAACGCGUCUCGCUGUUAAGGAGUAGACUGCGGGUUCGAGUCCCGUCCGGAACG [G12A C30G C33G C34U A42U A65C]	≤ 0.5
GUUCCGUUGGCAUAAUGGUAACGCGUCUCUCUCCUACGGAGAAGAUUGCGGGUUCGAGUCCCGUACGGAACG [G12A C30U A37C C46U]	≤ 0.5
GUUCCGUUGGCAUAAUGGUAACGCGUCUCUCUCCUAAGGAGAAGCCUGCGGGUUCGAGUCCCGUACGGAACG [G12A C30U A45C]	≤ 0.5
GUUCCGUUGGCAUAAUGGUAACGCGUCUCUCUCCUAAGCAGAAGACUGCGGGUUCGAGUCCCGUACGGAACG [G12A C30U G39C]	≤ 0.5
GUUCCGUUGGCAUAAUGGUAACGCGUCUCCAUCCUAACGAGAAGACUGCGGGUUCGAGUCCCGUGCGGAACG [G12A C31A G38C A65G]	≤ 0.5
GUUCCGUUGGCAUAAUGGUAACGCGUCUCCUUCCUAAGGCGAAGACUGCGGGUUCGAGUCUCGUACGGAACG [G12A C31U A40C C61U]	≤ 0.5
GUUCCGUUGGCAUAAUGGUAACGCGUCUCCCUUCUAAGGAGAAGAGUGCGGGUUCGAGUCCCGUACGGAACG [G12A C33U C46G]	≤ 0.5
GUUCCGUUGGCAUAAUGGUAACGCGUCUCCCUCGUAGAGAGAAGACUGCAGGUUCGAGUCCCGUACGGAACG [G12A C34G A37G G38A G50A]	≤ 0.5
GUUCCGUUGGCAUAAUGGUAACGCGUCUCCCUCCUAAGGAGAAGAGUGCGGGUUCGAGUCCCGUACGGAACG [G12A C46G]	1
GUUCCGUUGGCAUAAUGGUAACGCGUCUCCCUCCUAAGGAGAAGACUGAGGGUUCGAGUGCCGUACCGAACG [G12A C49A C60G G67C]	≤ 0.5
GUUCCGUUGGCAUAAUGGUAACGCGUCUCCCUCCUAAGGAGAAGACUGUGGGUUCGAGUCGCGUACGGAACG [G12A C49U C61G]	≤ 0.5
GUUCCGUUGGCAUAAUGGUAACGCGUCUCCCUCCUAAGGAGAAGACUGCGGGUUGGAGUCCCGUACGGAACG [G12A C55G]	0.639
GUUCCGUUGGCAUAAUCGUAACGCGUCUCCCUCCUAAGGAGAAGACUGCGGGUUCGAGUCCCGUUCGGAACG [G12A G17C A65U]	≤ 0.5
GUUCCGUUGGCAUAAUGGUAACCCAUCUCCCUCCUAAGGAGAAGACUGCGGGUUCGAGUCCCGUACGGAACG [G12A G23C G25A]	≤ 0.5
